PubChem BioAssay AID1508597 – Cure First, 2020

Aim: 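Genes whose silencing sensitises or protects ovarian cancer cells against rucaparib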 (primary screen)
System: human ovarian carcinoma lines grown from tumours: OCI-P5x (papillary serous) and OCI-C5x (clear cell)
Knock-down reagent: siRNA pool against human genes, 1.25 pmol siRNA per well
Timing: 72 h or 96 h, depending on the cell culture
Conditions: rucaparib 20 µM (about IC30) or vehicle, present until read-out
Measured: 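ATP luminescence measured at 72 or 96 h according to the culture, then normalised and expressed as percent viability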
Reading the numbers: viability, normalised: higher = more viable cells remaining
Rule for the call: 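Active when normalised viability falls below 80 percent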
Meaning of the calls: active = viability under 80%; inactive = viability 80% or more
This is an unselected part of about 2,100 reagents tested. 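Calls flag viability under 80% in either arm, not effects specific to rucaparib; the reference for percent is not stated.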 Not stated in the record: the 100% reference.

| gene symbol | rucaparib or vehicle | cell line | technical replicate | viability, normalised (%) | outcome |
| --- | --- | --- | --- | --- | --- |
| F10 (coagulation factor X) | Rucaparib | OCI-C5x (clear cell) | 1 | 45.7 | active |
| F10 (coagulation factor X) | Rucaparib | OCI-C5x (clear cell) | 2 | 24 | active |
| F10 (coagulation factor X) | Rucaparib | OCI-C5x (clear cell) | 3 | 39.5 | active |
| F10 (coagulation factor X) | Rucaparib | OCI-P5x (serous) | 1 | 39.6 | active |
| F10 (coagulation factor X) | Rucaparib | OCI-P5x (serous) | 2 | 43.6 | active |
| F10 (coagulation factor X) | Rucaparib | OCI-P5x (serous) | 3 | 63.5 | active |
| F10 (coagulation factor X) | Vehicle | OCI-C5x (clear cell) | 1 | 46.3 | active |
| F10 (coagulation factor X) | Vehicle | OCI-C5x (clear cell) | 2 | 61.1 | active |
| F10 (coagulation factor X) | Vehicle | OCI-C5x (clear cell) | 3 | 59.2 | active |
| F10 (coagulation factor X) | Vehicle | OCI-P5x (serous) | 1 | 59.9 | active |
| F10 (coagulation factor X) | Vehicle | OCI-P5x (serous) | 2 | 62.2 | active |
| F10 (coagulation factor X) | Vehicle | OCI-P5x (serous) | 3 | 61.6 | active |
| SLC25A26 | Rucaparib | OCI-C5x (clear cell) | 1 | 53.8 | active |
| SLC25A26 | Rucaparib | OCI-C5x (clear cell) | 2 | 55 | active |
| SLC25A26 | Rucaparib | OCI-C5x (clear cell) | 3 | 68.6 | active |
| SLC25A26 | Rucaparib | OCI-P5x (serous) | 1 | 50.1 | active |
| SLC25A26 | Rucaparib | OCI-P5x (serous) | 2 | 57.7 | active |
| SLC25A26 | Rucaparib | OCI-P5x (serous) | 3 | 65.6 | active |
| SLC25A26 | Vehicle | OCI-C5x (clear cell) | 1 | 65.1 | active |
| SLC25A26 | Vehicle | OCI-C5x (clear cell) | 2 | 47.5 | active |
| SLC25A26 | Vehicle | OCI-C5x (clear cell) | 3 | 63.8 | active |
| SLC25A26 | Vehicle | OCI-P5x (serous) | 1 | 65.7 | active |
| SLC25A26 | Vehicle | OCI-P5x (serous) | 2 | 64.1 | active |
| SLC25A26 | Vehicle | OCI-P5x (serous) | 3 | 68.6 | active |
| PTEN (phosphatase and tensin homolog) | Rucaparib | OCI-C5x (clear cell) | 1 | 56.2 | active |
| PTEN (phosphatase and tensin homolog) | Rucaparib | OCI-C5x (clear cell) | 2 | 56.2 | active |
| PTEN (phosphatase and tensin homolog) | Rucaparib | OCI-C5x (clear cell) | 3 | 57.9 | active |
| PTEN (phosphatase and tensin homolog) | Rucaparib | OCI-P5x (serous) | 1 | 53.1 | active |
| PTEN (phosphatase and tensin homolog) | Rucaparib | OCI-P5x (serous) | 2 | 75.8 | active |
| PTEN (phosphatase and tensin homolog) | Rucaparib | OCI-P5x (serous) | 3 | 75.6 | active |
| PTEN (phosphatase and tensin homolog) | Vehicle | OCI-C5x (clear cell) | 1 | 66.8 | active |
| PTEN (phosphatase and tensin homolog) | Vehicle | OCI-C5x (clear cell) | 2 | 75.3 | active |
| PTEN (phosphatase and tensin homolog) | Vehicle | OCI-C5x (clear cell) | 3 | 56.7 | active |
| PTEN (phosphatase and tensin homolog) | Vehicle | OCI-P5x (serous) | 1 | 83.3 | inactive |
| PTEN (phosphatase and tensin homolog) | Vehicle | OCI-P5x (serous) | 2 | 78 | active |
| PTEN (phosphatase and tensin homolog) | Vehicle | OCI-P5x (serous) | 3 | 74.7 | active |
| CDC14B (cell division cycle 14B) | Rucaparib | OCI-C5x (clear cell) | 1 | 45.1 | active |
| CDC14B (cell division cycle 14B) | Rucaparib | OCI-C5x (clear cell) | 2 | 45 | active |
| CDC14B (cell division cycle 14B) | Rucaparib | OCI-C5x (clear cell) | 3 | 41 | active |
| CDC14B (cell division cycle 14B) | Rucaparib | OCI-P5x (serous) | 1 | 95.7 | inactive |
| CDC14B (cell division cycle 14B) | Rucaparib | OCI-P5x (serous) | 2 | 94.8 | inactive |
| CDC14B (cell division cycle 14B) | Rucaparib | OCI-P5x (serous) | 3 | 51.1 | active |
| CDC14B (cell division cycle 14B) | Vehicle | OCI-C5x (clear cell) | 1 | 40.7 | active |
| CDC14B (cell division cycle 14B) | Vehicle | OCI-C5x (clear cell) | 2 | 48.6 | active |
| CDC14B (cell division cycle 14B) | Vehicle | OCI-C5x (clear cell) | 3 | 38.3 | active |
| CDC14B (cell division cycle 14B) | Vehicle | OCI-P5x (serous) | 1 | 91.6 | inactive |
| CDC14B (cell division cycle 14B) | Vehicle | OCI-P5x (serous) | 2 | 77.3 | active |
| CDC14B (cell division cycle 14B) | Vehicle | OCI-P5x (serous) | 3 | 63.9 | active |
| BCL10 (BCL10 immune signaling adaptor) | Rucaparib | OCI-C5x (clear cell) | 1 | 40.2 | active |
| BCL10 (BCL10 immune signaling adaptor) | Rucaparib | OCI-C5x (clear cell) | 2 | 46.9 | active |
| BCL10 (BCL10 immune signaling adaptor) | Rucaparib | OCI-C5x (clear cell) | 3 | 41.1 | active |
| BCL10 (BCL10 immune signaling adaptor) | Rucaparib | OCI-P5x (serous) | 1 | 69.1 | active |
| BCL10 (BCL10 immune signaling adaptor) | Rucaparib | OCI-P5x (serous) | 2 | 75.4 | active |
| BCL10 (BCL10 immune signaling adaptor) | Rucaparib | OCI-P5x (serous) | 3 | 73.9 | active |
| BCL10 (BCL10 immune signaling adaptor) | Vehicle | OCI-C5x (clear cell) | 1 | 43.9 | active |
| BCL10 (BCL10 immune signaling adaptor) | Vehicle | OCI-C5x (clear cell) | 2 | 40 | active |
| BCL10 (BCL10 immune signaling adaptor) | Vehicle | OCI-C5x (clear cell) | 3 | 31 | active |
| BCL10 (BCL10 immune signaling adaptor) | Vehicle | OCI-P5x (serous) | 1 | 50.3 | active |
| BCL10 (BCL10 immune signaling adaptor) | Vehicle | OCI-P5x (serous) | 2 | 67.6 | active |
| BCL10 (BCL10 immune signaling adaptor) | Vehicle | OCI-P5x (serous) | 3 | 73.4 | active |
| CDK14 (cyclin dependent kinase 14) | Rucaparib | OCI-C5x (clear cell) | 1 | 70.8 | active |
| CDK14 (cyclin dependent kinase 14) | Rucaparib | OCI-C5x (clear cell) | 2 | 67.6 | active |
| CDK14 (cyclin dependent kinase 14) | Rucaparib | OCI-C5x (clear cell) | 3 | 65.4 | active |
| CDK14 (cyclin dependent kinase 14) | Rucaparib | OCI-P5x (serous) | 1 | 97.4 | inactive |
| CDK14 (cyclin dependent kinase 14) | Rucaparib | OCI-P5x (serous) | 2 | 98.9 | inactive |
| CDK14 (cyclin dependent kinase 14) | Rucaparib | OCI-P5x (serous) | 3 | 85.5 | inactive |
| CDK14 (cyclin dependent kinase 14) | Vehicle | OCI-C5x (clear cell) | 1 | 78.7 | active |
| CDK14 (cyclin dependent kinase 14) | Vehicle | OCI-C5x (clear cell) | 2 | 67.2 | active |
| CDK14 (cyclin dependent kinase 14) | Vehicle | OCI-C5x (clear cell) | 3 | 69.5 | active |
| CDK14 (cyclin dependent kinase 14) | Vehicle | OCI-P5x (serous) | 1 | 88.3 | inactive |
| CDK14 (cyclin dependent kinase 14) | Vehicle | OCI-P5x (serous) | 2 | 72.9 | active |
| CDK14 (cyclin dependent kinase 14) | Vehicle | OCI-P5x (serous) | 3 | 74.7 | active |
| UHRF2 (ubiquitin like with PHD and ring finger domains 2) | Rucaparib | OCI-C5x (clear cell) | 1 | 85.1 | inactive |
| UHRF2 (ubiquitin like with PHD and ring finger domains 2) | Rucaparib | OCI-C5x (clear cell) | 2 | 65 | active |
| UHRF2 (ubiquitin like with PHD and ring finger domains 2) | Rucaparib | OCI-C5x (clear cell) | 3 | 43.5 | active |
| UHRF2 (ubiquitin like with PHD and ring finger domains 2) | Rucaparib | OCI-P5x (serous) | 1 | 87.1 | inactive |
| UHRF2 (ubiquitin like with PHD and ring finger domains 2) | Rucaparib | OCI-P5x (serous) | 2 | 46.3 | active |
| UHRF2 (ubiquitin like with PHD and ring finger domains 2) | Rucaparib | OCI-P5x (serous) | 3 | 89.6 | inactive |
| UHRF2 (ubiquitin like with PHD and ring finger domains 2) | Vehicle | OCI-C5x (clear cell) | 1 | 79.2 | active |
| UHRF2 (ubiquitin like with PHD and ring finger domains 2) | Vehicle | OCI-C5x (clear cell) | 2 | 41.9 | active |
| UHRF2 (ubiquitin like with PHD and ring finger domains 2) | Vehicle | OCI-C5x (clear cell) | 3 | 68.8 | active |
| UHRF2 (ubiquitin like with PHD and ring finger domains 2) | Vehicle | OCI-P5x (serous) | 1 | 73.8 | active |
| UHRF2 (ubiquitin like with PHD and ring finger domains 2) | Vehicle | OCI-P5x (serous) | 2 | 96.7 | inactive |
| UHRF2 (ubiquitin like with PHD and ring finger domains 2) | Vehicle | OCI-P5x (serous) | 3 | 75.5 | active |

Laid out differently: results already given.
{"gene symbol": "BCL10 (BCL10 immune signaling adaptor)", "rucaparib or vehicle": "Rucaparib", "cell line": "OCI-P5x (serous)", "technical replicate": "1", "viability, normalised (%)": 69.1, "outcome": "active"}
{"gene symbol": "BCL10 (BCL10 immune signaling adaptor)", "rucaparib or vehicle": "Rucaparib", "cell line": "OCI-P5x (serous)", "technical replicate": "2", "viability, normalised (%)": 75.4, "outcome": "active"}
{"gene symbol": "BCL10 (BCL10 immune signaling adaptor)", "rucaparib or vehicle": "Rucaparib", "cell line": "OCI-P5x (serous)", "technical replicate": "3", "viability, normalised (%)": 73.9, "outcome": "active"}
{"gene symbol": "BCL10 (BCL10 immune signaling adaptor)", "rucaparib or vehicle": "Vehicle", "cell line": "OCI-C5x (clear cell)", "technical replicate": "1", "viability, normalised (%)": 43.9, "outcome": "active"}
{"gene symbol": "BCL10 (BCL10 immune signaling adaptor)", "rucaparib or vehicle": "Vehicle", "cell line": "OCI-C5x (clear cell)", "technical replicate": "2", "viability, normalised (%)": 40, "outcome": "active"}
{"gene symbol": "BCL10 (BCL10 immune signaling adaptor)", "rucaparib or vehicle": "Vehicle", "cell line": "OCI-C5x (clear cell)", "technical replicate": "3", "viability, normalised (%)": 31, "outcome": "active"}
{"gene symbol": "BCL10 (BCL10 immune signaling adaptor)", "rucaparib or vehicle": "Vehicle", "cell line": "OCI-P5x (serous)", "technical replicate": "1", "viability, normalised (%)": 50.3, "outcome": "active"}
{"gene symbol": "BCL10 (BCL10 immune signaling adaptor)", "rucaparib or vehicle": "Vehicle", "cell line": "OCI-P5x (serous)", "technical replicate": "2", "viability, normalised (%)": 67.6, "outcome": "active"}
{"gene symbol": "BCL10 (BCL10 immune signaling adaptor)", "rucaparib or vehicle": "Vehicle", "cell line": "OCI-P5x (serous)", "technical replicate": "3", "viability, normalised (%)": 73.4, "outcome": "active"}
